1 molecule from PMC10721474 (Plant Communications, 2023) can be followed below.

By UniProt entry, the sequences of proteins in these tests, tags left out. Where a name states a change or a piece, a line headed by the entry shows the natural chain unless it says otherwise.
UniProt Q9FFD0: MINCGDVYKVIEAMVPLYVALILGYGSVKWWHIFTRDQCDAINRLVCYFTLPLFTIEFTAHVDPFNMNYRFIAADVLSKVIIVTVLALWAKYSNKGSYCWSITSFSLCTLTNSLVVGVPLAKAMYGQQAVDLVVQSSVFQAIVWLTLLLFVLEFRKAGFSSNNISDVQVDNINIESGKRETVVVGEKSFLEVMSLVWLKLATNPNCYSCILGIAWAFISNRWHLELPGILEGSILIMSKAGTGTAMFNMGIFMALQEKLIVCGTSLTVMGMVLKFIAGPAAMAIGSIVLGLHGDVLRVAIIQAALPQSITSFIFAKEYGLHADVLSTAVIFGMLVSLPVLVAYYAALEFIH
UniProt Q9LU77: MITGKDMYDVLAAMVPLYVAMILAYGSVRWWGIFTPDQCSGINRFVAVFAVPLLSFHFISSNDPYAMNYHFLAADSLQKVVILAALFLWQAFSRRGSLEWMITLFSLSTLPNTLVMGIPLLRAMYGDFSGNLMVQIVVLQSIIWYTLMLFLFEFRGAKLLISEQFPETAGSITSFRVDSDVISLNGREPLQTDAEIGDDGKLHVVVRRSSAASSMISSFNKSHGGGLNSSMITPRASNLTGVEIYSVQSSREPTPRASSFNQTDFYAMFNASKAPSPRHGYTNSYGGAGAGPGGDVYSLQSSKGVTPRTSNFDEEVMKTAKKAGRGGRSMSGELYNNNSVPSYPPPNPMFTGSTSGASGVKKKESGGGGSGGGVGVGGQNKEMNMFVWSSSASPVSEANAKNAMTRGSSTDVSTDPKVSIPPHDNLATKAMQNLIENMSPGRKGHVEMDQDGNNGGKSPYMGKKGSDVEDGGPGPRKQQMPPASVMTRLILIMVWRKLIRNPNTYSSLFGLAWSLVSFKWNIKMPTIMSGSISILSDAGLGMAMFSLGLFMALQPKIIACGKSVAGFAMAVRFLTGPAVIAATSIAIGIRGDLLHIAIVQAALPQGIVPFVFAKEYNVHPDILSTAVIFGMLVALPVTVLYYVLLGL
UniProt Q9C6B8: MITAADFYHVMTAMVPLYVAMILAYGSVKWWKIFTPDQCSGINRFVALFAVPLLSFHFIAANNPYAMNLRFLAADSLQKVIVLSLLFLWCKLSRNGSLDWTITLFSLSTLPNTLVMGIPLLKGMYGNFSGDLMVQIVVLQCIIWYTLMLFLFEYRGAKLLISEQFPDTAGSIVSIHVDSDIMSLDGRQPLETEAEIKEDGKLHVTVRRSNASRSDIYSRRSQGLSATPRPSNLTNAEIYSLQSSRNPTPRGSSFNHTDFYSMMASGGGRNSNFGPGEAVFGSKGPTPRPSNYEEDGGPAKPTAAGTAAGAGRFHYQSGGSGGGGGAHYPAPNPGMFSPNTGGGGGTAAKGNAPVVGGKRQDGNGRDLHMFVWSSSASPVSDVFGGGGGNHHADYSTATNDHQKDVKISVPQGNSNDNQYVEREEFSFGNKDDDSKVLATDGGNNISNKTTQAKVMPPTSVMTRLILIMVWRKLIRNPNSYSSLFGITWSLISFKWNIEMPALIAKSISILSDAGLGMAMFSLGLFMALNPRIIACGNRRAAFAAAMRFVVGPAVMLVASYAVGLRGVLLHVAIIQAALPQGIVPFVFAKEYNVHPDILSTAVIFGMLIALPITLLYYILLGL
UniProt Q9LFP6: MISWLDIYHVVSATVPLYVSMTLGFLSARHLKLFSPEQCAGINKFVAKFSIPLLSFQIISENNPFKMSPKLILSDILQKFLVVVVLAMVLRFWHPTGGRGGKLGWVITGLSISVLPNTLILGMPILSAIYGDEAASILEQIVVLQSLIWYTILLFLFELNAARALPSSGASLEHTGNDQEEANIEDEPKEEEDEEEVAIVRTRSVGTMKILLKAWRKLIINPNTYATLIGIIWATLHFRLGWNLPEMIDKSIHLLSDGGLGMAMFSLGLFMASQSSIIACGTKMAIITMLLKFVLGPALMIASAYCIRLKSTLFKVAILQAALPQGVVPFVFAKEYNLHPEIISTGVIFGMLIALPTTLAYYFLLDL

The target in test [1] is PIN5 (Arabidopsis thaliana, UniProt Q9FFD0).
The target in test [2] is PIN2 (Arabidopsis thaliana, UniProt Q9LU77).
Test [3] deals with PIN1 (Arabidopsis thaliana, UniProt Q9C6B8). In words: biochemical.
The target of test [4] is PIN8 (Arabidopsis thaliana, UniProt Q9LFP6).

pKd: −log10 of the molar value.

As a reminder, the pKd is the negative decadic logarithm of the Kd, by convention in mol/L. Read a low pKd as a high Kd. On to `COc1ccc2cc([C@H](C)C(=O)O)ccc2c1` [naproxen, (S)-(+)-6-methoxy-α-methyl-2-naphthaleneacetic acid], for which the Kd entry in test [1] is “SPR assays suggest that naproxen also binds to PIN5 and PIN8 proteins”; in test [2] it was “naproxen bound to all PINs examined with KD values similar to that of naproxen–PIN1”; in test [4], “SPR assays suggest that naproxen also binds to PIN5 and PIN8 proteins”. The pKd in test [3] was ~4.91.
